Results deposited as PubChem BioAssay AID1053208 (Peter MacCallum Cancer Centre, 2014)
In all, the deposit lists about 17,000 reagents; below is a random part of them. 788 of all reagents (4.7%) were called active. 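Calls rest on z-score classes alone; an extra cut-off of viability at most 70% of control was not applied to them.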

Purpose: 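Genes whose silencing cuts survival of bone tumour cells only with doxorubicin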 (primary screen)
System: mouse osteosarcoma cells, early-passage culture from an engineered mouse model of fibroblastic bone tumour
Reagents: siRNA pool against mouse genes, 40 nM
Timing: about 120 h (48 h before drug, then 72 h with drug)
Challenge: doxorubicin 100 nM for 72 h, roughly 30-40% inhibitory dose
Read-out: 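Viability read as ATP luminescence after 72 h of 100 nM doxorubicin or none, duplicate wells averaged, scaled to non-targeting siRNA, then expressed as robust z-scores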
Direction: viability z-score with doxorubicin and doxorubicin viability vs non-targeting: higher = more viable cells under doxorubicin; viability z-score without drug: higher = more viable cells with knock-down alone; z-score of drug to no-drug ratio: higher = less drug sensitisation by knock-down
Hit rule: 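a pool counts as active when its viability z-score with doxorubicin is -2 or below and its z-score without drug lies between -2 and 2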

| gene knocked down | combined z-score class | viability z-score with doxorubicin | viability z-score without drug | z-score of drug to no-drug ratio | doxorubicin viability vs non-targeting | outcome |
| --- | --- | --- | --- | --- | --- | --- |
| Kmt5a (lysine methyltransferase 5A) | low cell count with and without drug | -4.27 | -3.2 | -2.7 | 0.56 | inactive |
| Tmem252 (transmembrane protein 252) | high cell count without drug only | 0.67 | 2.53 | -0.79 | 1 | inactive |
| Gria3 (glutamate receptor, ionotropic, AMPA3 (alpha 3)) | no change with or without drug | 1.35 | -0.17 | 1.69 | 1.06 | inactive |
| Vat1 (vesicle amine transport 1) | no change with or without drug | 1.01 | 0.51 | 0.79 | 1.03 | inactive |
| Krt23 (keratin 23) | no change with or without drug | -1.35 | -1.01 | -0.67 | 0.82 | inactive |
| AI315068 | no change with or without drug | -0.22 | -0.17 | 0 | 0.92 | inactive |
| Rab14 (RAB14, member RAS oncogene family) | no change with or without drug | -0.67 | -0.34 | -0.34 | 0.88 | inactive |
| Gpd1l (glycerol-3-phosphate dehydrogenase 1-like) | no change with or without drug | 0.67 | 0.84 | 0.22 | 1 | inactive |
| Sycn (syncollin) | no change with or without drug | 0 | 0.17 | 0 | 0.94 | inactive |
| Nus1 (NUS1 dehydrodolichyl diphosphate synthase subunit) | no change with or without drug | -0.45 | -1.35 | 0.56 | 0.9 | inactive |
| Usp29 (ubiquitin specific peptidase 29) | no change with or without drug | -1.57 | -0.84 | -1.01 | 0.8 | inactive |
| Or5b106 (olfactory receptor family 5 subfamily B member 106) | no change with or without drug | 0 | 0 | 0.11 | 0.94 | inactive |
| AU040320 (expressed sequence AU040320) | no change with or without drug | 0.34 | 0.17 | 0.34 | 0.97 | inactive |

Reformatted: results already given
gene knocked down,combined z-score class,viability z-score with doxorubicin,viability z-score without drug,z-score of drug to no-drug ratio,doxorubicin viability vs non-targeting,outcome
Vat1 (vesicle amine transport 1),no change with or without drug,1.01,0.51,0.79,1.03,inactive
Krt23 (keratin 23),no change with or without drug,-1.35,-1.01,-0.67,0.82,inactive
AI315068,no change with or without drug,-0.22,-0.17,0,0.92,inactive
"Rab14 (RAB14, member RAS oncogene family)",no change with or without drug,-0.67,-0.34,-0.34,0.88,inactive

Continued.
| gene knocked down | combined z-score class | viability z-score with doxorubicin | viability z-score without drug | z-score of drug to no-drug ratio | doxorubicin viability vs non-targeting | outcome |
| --- | --- | --- | --- | --- | --- | --- |
| Or5p50 (olfactory receptor family 5 subfamily P member 50) | no change with or without drug | -0.67 | -1.52 | 0.45 | 0.88 | inactive |
| Or2ah1 (olfactory receptor family 2 subfamily AH member 1) | no change with or without drug | -0.11 | 0 | 0 | 0.93 | inactive |
| Tk1 (thymidine kinase 1) | no change with or without drug | -0.45 | -0.84 | 0.22 | 0.9 | inactive |
| Cept1 (choline/ethanolaminephosphotransferase 1) | no change with or without drug | -1.8 | -1.52 | -0.79 | 0.78 | inactive |
| Il1r1 (interleukin 1 receptor, type I) | low cell count with doxorubicin only | -3.15 | -1.35 | -2.47 | 0.66 | active |
| Adgre5 (adhesion G protein-coupled receptor E5) | no change with or without drug | 0.45 | 0.17 | 0.45 | 0.98 | inactive |
| Pcdhga5 (protocadherin gamma subfamily A, 5) | no change with or without drug | -1.8 | 1.01 | -2.36 | 0.78 | inactive |
| Gadd45g (growth arrest and DNA-damage-inducible 45 gamma) | no change with or without drug | 0.11 | -0.84 | 0.9 | 0.95 | inactive |
| Pde8b (phosphodiesterase 8B) | no change with or without drug | 0 | 0 | 0.11 | 0.94 | inactive |
| Wdr36 (WD repeat domain 36) | no change with or without drug | 0.11 | 0.51 | -0.11 | 0.95 | inactive |
| Sema7a | no change with or without drug | 0 | -0.51 | 0.45 | 0.94 | inactive |
| Creld1 (cysteine-rich with EGF-like domains 1) | no change with or without drug | 0.79 | 0.34 | 0.67 | 1.01 | inactive |
| 4930474N05Rik (RIKEN cDNA 4930474N05 gene) | high cell count without drug only | 0 | 2.19 | -1.24 | 0.94 | inactive |
| Rgs9 (regulator of G-protein signaling 9) | no change with or without drug | 0 | -0.84 | 0.67 | 0.94 | inactive |
| Mllt6 | no change with or without drug | -1.35 | 1.52 | -2.14 | 0.82 | inactive |
| Reg2 (regenerating islet-derived 2) | low cell count with and without drug | -3.15 | -3.2 | -1.24 | 0.66 | inactive |
| Jrk (JRK helix-turn-helix protein) | no change with or without drug | 0.56 | 0.84 | 0.11 | 0.99 | inactive |
| Slc16a3 | low cell count with doxorubicin only | -4.72 | -0.51 | -4.61 | 0.52 | active |
| Aqp1 (aquaporin 1) | no change with or without drug | 0.56 | -0.17 | 0.79 | 0.99 | inactive |
| Ifi202b (interferon activated gene 202B) | no change with or without drug | -1.35 | -0.34 | -1.12 | 0.82 | inactive |
| Pnmt (phenylethanolamine-N-methyltransferase) | no change with or without drug | 0 | -0.17 | 0.22 | 0.94 | inactive |
